Results deposited as PubChem BioAssay AID1259405 (NCATS, 2018)

- Purpose: 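Knock-downs that lift recombinant protein yield in hamster ovary cells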 (primary screen)
- Cells: Chinese hamster CHO-K1 ovary cells with stable secreted eGFP expression
- Knock-down reagent: single siRNA against mouse genes, 0.8 pmol siRNA per well (2 µl of 400 nM stock)
- Time to read-out: 3 days
- Measurement: 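Per-well intracellular GFP measured by laser scanning cytometry, plus viability from ATP luminescence, each relative to plate median of non-targeting control wells, in %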
- Direction: GFP, % of control: higher = more GFP per well, higher productivity; viability (ATP), % of control: higher = more viable cells (more ATP)
- Call rule: 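Called active when intracellular GFP, relative to negative control, is at or above 120%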
Here is an unselected part of about 50,000 reagents tested. About 4,000 of them (8%) were called active. 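Mouse siRNA library applied to hamster cells; one well for each siRNA.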 A number with no mark means an inactive call. The numbers tell different reagents against one gene apart. No sequences are given here.

For Clrn1 #1, the entry reads GFP, % of control 71.9; viability (ATP), % of control 67.4.
Against Clrn1 #2, the entry reads GFP, % of control 64.6; viability (ATP), % of control 78.
For Clrn1 #3 the deposit lists GFP, % of control 74.5; viability (ATP), % of control 88.8.
Silencing of Drc5 #1 came out at: GFP, % of control 106; viability (ATP), % of control 71.9.
Depletion of Drc5 #2 gave: GFP, % of control 102; viability (ATP), % of control 90.1.
Against Drc5 #3 the deposit lists GFP, % of control 134 (active); viability (ATP), % of control 119.
Depletion of Mrgprf #1 came out at: GFP, % of control 64.8; viability (ATP), % of control 71.7.
With knock-down of Mrgprf #2, the record shows GFP, % of control 94.5; viability (ATP), % of control 85.3.
Depletion of Mrgprf #3 came out at: GFP, % of control 64.5; viability (ATP), % of control 61.
With knock-down of Sh2d7 #1, the screen gave GFP, % of control 118; viability (ATP), % of control 132.
After knock-down of Sh2d7 #2 the results were GFP, % of control 85.1; viability (ATP), % of control 91.7.
Silencing of Sh2d7 #3 came out at: GFP, % of control 98.5; viability (ATP), % of control 114.
Leap2 #1 gave GFP, % of control 53.2; viability (ATP), % of control 79.6.
Leap2 #2 scored GFP, % of control 33.3; viability (ATP), % of control 16.4.
For Leap2 #3, the values are GFP, % of control 82.5; viability (ATP), % of control 59.5.
Depletion of Ccdc63 #1 came out at: GFP, % of control 93.5; viability (ATP), % of control 85.
With knock-down of Ccdc63 #2, the screen gave GFP, % of control 31.4; viability (ATP), % of control 25.5.
Ccdc63 #3 showed GFP, % of control 124 (active); viability (ATP), % of control 110.

Copied from the list:
Mrgprf #3, GFP, % of control: 64.5
Entry of Ccdc63 #3 under “viability (ATP), % of control”: 110 (active)
